Experiment: general procedure: solution-phase peptide synthesis; EEDQ; EDCI.HCl
Details: conjugation step

## tert-butyl (S)-(2-((2-((1-((2-((4-amino-5-oxo-5,6,7,8-tetrahydronaphthalen-1-yl)amino)-2-oxoethyl)amino)-1-oxo-3-phenylpropan-2-yl)amino)-2-oxoethyl) amino)-2-oxoethyl) carbamate
  conjugation yield: 80.9% Yield
